Measurements published in PMC10803253, “Structural insights into the iron nitrogenase complex” (Nature Structural & Molecular Biology, 2023).
These are yes or no findings as the source states them, for the method shown.

Amino acid sequences for entries named in this document (tags omitted).
UniProt Q07933: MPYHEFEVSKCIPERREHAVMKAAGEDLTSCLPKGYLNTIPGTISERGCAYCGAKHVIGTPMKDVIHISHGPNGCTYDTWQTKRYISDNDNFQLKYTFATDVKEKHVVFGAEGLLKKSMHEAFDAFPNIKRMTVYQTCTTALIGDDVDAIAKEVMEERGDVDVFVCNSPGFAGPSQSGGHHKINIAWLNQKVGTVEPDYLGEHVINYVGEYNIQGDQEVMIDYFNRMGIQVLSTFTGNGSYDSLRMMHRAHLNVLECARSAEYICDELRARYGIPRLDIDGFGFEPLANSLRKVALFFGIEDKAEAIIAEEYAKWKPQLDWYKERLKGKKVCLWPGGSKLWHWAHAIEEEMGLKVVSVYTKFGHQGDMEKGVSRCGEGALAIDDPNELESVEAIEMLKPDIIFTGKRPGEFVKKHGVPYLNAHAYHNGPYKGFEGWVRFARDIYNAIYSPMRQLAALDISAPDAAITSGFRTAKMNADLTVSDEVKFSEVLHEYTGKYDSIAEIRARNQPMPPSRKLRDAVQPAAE

Target: AnfD, D subunit of the Fe nitrogenase catalytic component (Rhodobacter capsulatus) (Rhodobacter capsulatus) (UniProt Q07933)
Assay: condition: only with CHAPSO detergent (0.4% m/V) added before plunge freezing; cryo-EM structure; catalytic component Anf(DGK)2 alone with CHAPSO (0.4% m/V) added on the grid right before plunge freezing; 2.49 Å, C2 symmetry; both purified

binding: no binding
B1: AnfG, G subunit of the Fe nitrogenase catalytic component (Rhodobacter capsulatus) (protein, UniProt Q07934 1-115)
chain: MTDISEKLDPLVDYIMKNCLWQFNSRGWDRLKQNAGILSQTCEILCGEEPVHETAMDRCYWVDAVILSRAYKARFPWLMAMTKPEIKSLFKALHEKIDHLTVHGSLNTELTVPHY
